{"source": "PubChem BioAssay AID2685", "about": "(National Center for Advancing Translational Sciences (NCATS), 2010)", "assay": "qHTS Assay for Lipid Storage Modulators in Drosophila S3 Cells;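 on cell number change: cells counted by Cell Tracker Red CMTPX staining in the red channel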", "details": "BODIPY lipid droplet fluorescence, 18-24 h; for cell number change: measured here: cell count max response, cells fed with added oleic acid", "summary_of_the_method": "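Drosophila S3 cells got compounds at several concentrations plus oleic acid (400 uM solution). Laser-scanning cytometry with 488 nm excitation read lipid droplets at 500-530 nm and cells at 575-640 nm. Percent activity was relative to 20 uM Triacsin C.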", "key": {"[1]": {"details": "measured here: lipid fluorescence (Fed channel) AC50, cells fed with added oleic acid"}, "[2]": {"details": "measured here: cell number channel AC50, cells fed with added oleic acid"}}, "note": "This is one part of the list. Further columns of the screen follow, without active or inactive calls. Most of these compounds were active or inconclusive in the main read-out, so they are no random draw. Potencies come from curve fits of mixed quality, noted in brackets."}
{"smiles": "C[C@H](NC(=O)NC1CCCc2ccccc21)C(=O)O", "note": "(some centres not stated)", "values": [{"measurement": "cell number change", "result": 5.21, "unit": "%"}, {"measurement": "AC50", "setting": "[1]", "result": "0.82 µM [falling, single point]"}]}
{"smiles": "Cc1nn2c(-c3ccccc3)ccnc2c1-c1ccccc1", "values": [{"measurement": "AC50", "setting": "[2]", "result": "0.517 µM [rising, full curve]"}]}
{"smiles": "COc1ccc(CCC(C)NCc2cc(OC)cc(OC)c2)cc1", "note": "(configuration not stated)", "values": [{"measurement": "cell number change", "result": -8.84, "unit": "%"}]}
{"smiles": "N#CCCn1cnc2c(=S)nc[nH]c21", "values": [{"measurement": "cell number change", "result": -11.9, "unit": "%"}, {"measurement": "AC50", "setting": "[2]", "result": "2.06 µM [falling, partial curve, poor fit]"}, {"measurement": "AC50", "setting": "[1]", "result": "1.84 µM [falling, partial curve]"}]}
{"smiles": "O=C(COc1ccccc1)N(Cc1nnc(-c2ccccc2Cl)o1)C1CC1", "values": [{"measurement": "cell number change", "result": -54.5, "unit": "%"}]}
{"smiles": "N=c1oc2cc(O)ccc2cc1C(=O)Nc1nc2ccccc2s1", "values": [{"measurement": "cell number change", "result": 14.5, "unit": "%"}, {"measurement": "AC50", "setting": "[1]", "result": "18.4 µM [rising, single point]"}]}
{"smiles": "CCCCCCCCNC(=O)CCNC(=O)c1ccc(C(C)(C)C)cc1", "values": [{"measurement": "cell number change", "result": -34.8, "unit": "%"}, {"measurement": "AC50", "setting": "[2]", "result": "0.231 µM [falling, full curve, poor fit]"}, {"measurement": "AC50", "setting": "[1]", "result": "0.184 µM [falling, full curve]"}]}
{"smiles": "COCC(=O)Nc1nc(-c2ccc(C)cc2)c(C)s1", "values": [{"measurement": "cell number change", "result": -20.8, "unit": "%"}, {"measurement": "AC50", "setting": "[1]", "result": "0.461 µM [falling, full curve, poor fit]"}]}
{"smiles": "Cc1nc2sccn2c(=O)c1CCN1CCC(=C(c2ccccc2)c2ccc(F)cc2)CC1", "values": [{"measurement": "cell number change", "result": -3.39, "unit": "%"}, {"measurement": "AC50", "setting": "[1]", "result": "16.4 µM [rising, single point]"}]}
{"smiles": "CC1CCCCN1C(=O)NC12CC3CC(CC(C3)C1)C2", "note": "(configuration not stated)", "values": [{"measurement": "cell number change", "result": -31.4, "unit": "%"}, {"measurement": "AC50", "setting": "[2]", "result": "18.4 µM [falling, single point]"}, {"measurement": "AC50", "setting": "[1]", "result": "6.51 µM [falling, single point]"}]}
{"smiles": "CC(NC(=O)COC(=O)CNC(=O)c1ccccc1Cl)C1CC2CCC1C2", "note": "(configuration not stated)", "values": [{"measurement": "cell number change", "result": 11.6, "unit": "%"}, {"measurement": "AC50", "setting": "[1]", "result": "29.1 µM [rising, single point]"}]}
{"smiles": "COC(=O)C1=C(C)NC(=O)NC1c1c(O)ccc2ccccc12", "note": "(configuration not stated)", "values": [{"measurement": "cell number change", "result": 24.3, "unit": "%"}, {"measurement": "AC50", "setting": "[1]", "result": "29.1 µM [rising, single point]"}]}
{"smiles": "COc1cccc(C(=O)Nc2cc3c(cc2C(C)=O)OCCO3)c1", "values": [{"measurement": "AC50", "setting": "[1]", "result": "2.06 µM [rising, partial curve, poor fit]"}]}
{"smiles": "COC(=O)C(C(=O)N1CCN(C)CC1)C1CCCCCC1", "note": "(configuration not stated)", "values": [{"measurement": "cell number change", "result": -111, "unit": "%"}, {"measurement": "AC50", "setting": "[2]", "result": "23.1 µM [falling, partial curve, poor fit]"}, {"measurement": "AC50", "setting": "[1]", "result": "4.11 µM [falling, full curve]"}]}
{"smiles": "O=C(COC(=O)c1sc2ccccc2c1Cl)NC1CCCCC1", "values": [{"measurement": "cell number change", "result": 10.2, "unit": "%"}, {"measurement": "AC50", "setting": "[2]", "result": "0.731 µM [rising, single point]"}]}
{"smiles": "COc1ccc(C(C)(C)C)cc1NC(=O)CN1C(=O)C(=O)N(Cc2ccco2)C1=O", "values": [{"measurement": "cell number change", "result": -5.7, "unit": "%"}, {"measurement": "AC50", "setting": "[1]", "result": "1.46 µM [falling, partial curve]"}]}
{"smiles": "O=C(Nc1ccc(Cl)cc1N1CCOCC1)C1CCCCC1", "values": [{"measurement": "cell number change", "result": 15, "unit": "%"}]}
{"smiles": "O=C(Nc1ccc(Cl)c(S(=O)(=O)N2CCOCC2)c1)c1cc(=O)[nH]c2ccccc12", "values": [{"measurement": "cell number change", "result": 25.5, "unit": "%"}, {"measurement": "AC50", "setting": "[1]", "result": "11.6 µM [rising, partial curve]"}]}
{"smiles": "CC(=O)NCCC(=O)Nc1cc(S(=O)(=O)Nc2ccc(Cl)cc2)ccc1N1CCCC1", "values": [{"measurement": "cell number change", "result": -50, "unit": "%"}, {"measurement": "AC50", "setting": "[2]", "result": "29.1 µM [falling, single point]"}]}
{"smiles": "Cn1c(=O)n(C)c2cc([N+](=O)[O-])c(N3CCN(C(=O)c4ccccc4Cl)CC3)cc21", "values": [{"measurement": "cell number change", "result": -25.9, "unit": "%"}, {"measurement": "AC50", "setting": "[1]", "result": "18.4 µM [falling, partial curve]"}]}
{"smiles": "CCOC(=O)c1cnc(SSc2ncc(C(=O)OCC)c(N)n2)nc1N", "values": [{"measurement": "cell number change", "result": -28.1, "unit": "%"}]}
{"smiles": "O=[N+]([O-])c1ccccc1N(CC1CO1)S(=O)(=O)c1ccccc1", "note": "(configuration not stated)", "values": [{"measurement": "cell number change", "result": -9.78, "unit": "%"}, {"measurement": "AC50", "setting": "[1]", "result": "0.00411 µM [falling, full curve, poor fit]"}]}
{"smiles": "CC(CN1CCOCC1)OC(=O)c1cccc(Br)c1", "note": "(configuration not stated)", "values": [{"measurement": "cell number change", "result": 5.68, "unit": "%"}]}
{"smiles": "COc1cc(C2NC(=O)NC(C)=C2C(=O)NCc2ccccc2)c(Cl)cc1O", "note": "(configuration not stated)", "values": [{"measurement": "cell number change", "result": 33.7, "unit": "%"}, {"measurement": "AC50", "setting": "[1]", "result": "29.1 µM [rising, single point]"}]}
{"smiles": "O=C(Nc1ccc(NC(=O)c2cc3ccccc3o2)cc1)c1ccco1", "values": [{"measurement": "cell number change", "result": 17.1, "unit": "%"}]}
{"smiles": "O=C(NCCc1c[nH]c2ccccc12)c1cnc2sccn2c1=O", "values": [{"measurement": "cell number change", "result": 63.9, "unit": "%"}, {"measurement": "AC50", "setting": "[2]", "result": "0.92 µM [rising, partial curve]"}, {"measurement": "AC50", "setting": "[1]", "result": "0.517 µM [rising, full curve]"}]}
{"smiles": "COc1ccc(/C=N/NC(=O)c2ccn[nH]2)cc1Cn1nc(C)c([N+](=O)[O-])c1C", "values": [{"measurement": "cell number change", "result": 8.54, "unit": "%"}, {"measurement": "AC50", "setting": "[1]", "result": "23.1 µM [rising, single point]"}]}
{"smiles": "CCn1nc(NC(=O)C2CCCO2)c2cc3cc(C)ccc3nc21", "note": "(configuration not stated)", "values": [{"measurement": "cell number change", "result": -50.1, "unit": "%"}]}
{"smiles": "CCN(CC(=O)Nc1ccc(OC)cc1)C(=O)c1ccc2c(=O)n3c(nc2c1)CCC3", "values": [{"measurement": "cell number change", "result": 9.08, "unit": "%"}, {"measurement": "AC50", "setting": "[1]", "result": "3.26 µM [rising, single point]"}]}
{"smiles": "Cc1ccc(S(=O)(=O)N2CCOC23CCN(C(=O)C(=O)NCCC(C)C)CC3)cc1", "values": [{"measurement": "cell number change", "result": 2.2, "unit": "%"}]}
{"smiles": "O=C(CN1CCC(O)(c2ccccc2F)CC1)NCCc1c[nH]c2ccccc12", "values": [{"measurement": "cell number change", "result": 36.2, "unit": "%"}, {"measurement": "AC50", "setting": "[2]", "result": "20.6 µM [rising, single point]"}]}
{"smiles": "O=c1[nH]c(CN(CCO)CCO)nc2c1C1(CCCCC1)Cc1ccccc1-2", "values": [{"measurement": "cell number change", "result": -14.7, "unit": "%"}, {"measurement": "AC50", "setting": "[1]", "result": "29.1 µM [falling, single point]"}]}
{"smiles": "O=C1c2ccccc2C(=O)N1OCc1cccc(Cl)c1", "values": [{"measurement": "cell number change", "result": -8.12, "unit": "%"}]}
{"smiles": "O=C(c1cc(C2CC2)nn1-c1ccccc1)N1CCN(S(=O)(=O)c2ccccc2)CC1", "values": [{"measurement": "AC50", "setting": "[1]", "result": "13 µM [falling, partial curve]"}]}
{"smiles": "CCCNC(=O)Cn1cnc2sc(C(=O)N3CCN(c4ccc(F)cc4)CC3)c(C)c2c1=O", "values": [{"measurement": "cell number change", "result": -5.23, "unit": "%"}]}
{"smiles": "CC(=O)Nc1ccc(S(=O)(=O)NC2=NCN(C)CN2)cc1", "values": [{"measurement": "AC50", "setting": "[1]", "result": "4.61 µM [falling, partial curve, poor fit]"}]}
{"smiles": "COc1ccc(OCC(=O)Nc2ccc(S(=O)(=O)Nc3cc(C)on3)cc2)cc1", "values": [{"measurement": "cell number change", "result": -16.5, "unit": "%"}]}
{"smiles": "C=CCc1cccc(/C=N/NC(=O)C(C)Nc2cccc(C)c2)c1O", "note": "(configuration not stated)", "values": [{"measurement": "cell number change", "result": 10.3, "unit": "%"}]}
{"smiles": "Cc1nc2ccccc2c(=O)n1NC(=O)Nc1ccccc1", "values": [{"measurement": "AC50", "setting": "[2]", "result": "2.59 µM [rising, partial curve]"}]}
{"smiles": "Cc1ccc(CNC(=O)CCc2c(C)nn(-c3ccc(N4CCOCC4)nn3)c2C)cc1", "values": [{"measurement": "cell number change", "result": -43.2, "unit": "%"}, {"measurement": "AC50", "setting": "[2]", "result": "29.1 µM [falling, single point]"}]}
{"smiles": "COc1ccc(CNC(=O)CCc2nc(-c3ccccc3F)no2)c(OC)c1", "values": [{"measurement": "AC50", "setting": "[2]", "result": "6.51 µM [rising, single point]"}, {"measurement": "AC50", "setting": "[1]", "result": "4.11 µM [rising, single point]"}]}
{"smiles": "O=C(CN1CCOCC1)NC1C2CC3CC(C2)CC1C3", "note": "(configuration not stated)", "values": [{"measurement": "cell number change", "result": -21.5, "unit": "%"}, {"measurement": "AC50", "setting": "[1]", "result": "0.731 µM [falling, full curve]"}]}
